One substance from publication PMC7554872 can be followed below.

Amino acid sequences for entries named in this document (tags omitted).
UniProt Q9EPW1: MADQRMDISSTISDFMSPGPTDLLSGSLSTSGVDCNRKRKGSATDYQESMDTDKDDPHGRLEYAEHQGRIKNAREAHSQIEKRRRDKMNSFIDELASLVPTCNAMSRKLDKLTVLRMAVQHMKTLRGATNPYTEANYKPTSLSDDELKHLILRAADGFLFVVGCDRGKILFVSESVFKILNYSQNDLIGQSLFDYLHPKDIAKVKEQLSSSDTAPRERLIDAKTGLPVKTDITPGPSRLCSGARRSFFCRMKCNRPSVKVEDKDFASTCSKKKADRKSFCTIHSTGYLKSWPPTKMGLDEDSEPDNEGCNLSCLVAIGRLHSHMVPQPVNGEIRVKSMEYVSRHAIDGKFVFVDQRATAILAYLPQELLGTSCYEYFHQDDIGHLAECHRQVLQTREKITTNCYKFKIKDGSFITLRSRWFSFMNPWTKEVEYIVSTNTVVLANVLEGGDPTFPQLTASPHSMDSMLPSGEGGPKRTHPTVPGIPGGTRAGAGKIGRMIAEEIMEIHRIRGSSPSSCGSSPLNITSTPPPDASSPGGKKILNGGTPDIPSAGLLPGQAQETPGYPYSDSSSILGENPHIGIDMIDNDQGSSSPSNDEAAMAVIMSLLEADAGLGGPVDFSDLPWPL

Results are given in words; binding and its absence hold for the method and conditions named. In cells and extracts the contact can be indirect. Binding calls can cover weak binding; strength is not graded here.

For the assay, the target named is Brain and muscle Arnt-like (BMAL)1 protein (rat (endogenous in primary adipocytes of Wistar rats)) (UniProt Q9EPW1). The assay can be described thus: co-IP; lysate (1 mg/mL protein) of primary adipocytes from epididymal adipose tissue of E-SED, L-SED, E-EX and L-EX rats incubated with antibodies against BMAL1; immunocomplexes recovered on Dynabeads Protein G; blots with antibodies against each partner.

“hormone-sensitive lipase (from UniProt P15304-2) (enzyme)”: the binding entry is recorded as “binds”.
